Assay results as given in publication doi:10.1101/2023.03.13.532326.
Results are given in words; binding and its absence hold for the method and conditions named. In cells and extracts the contact can be indirect. A result given as binding can be weak or reduced; the word gives no strength.

Target: His6-FcrX (S. meliloti) (UniProt Q92JY7)
Experiment: pull-down

binding: binds
Substance: CtrA (from UniProt Q7APB9)
